Experimental findings from PubChem BioAssay AID256 (DTP/NCI, 2004) are described below.

The list does not hold the whole screen: it gathers some chemical classes. Not every dose and run of a compound is shown. T/C gives the treated animals as a percentage of the vehicle group. Some doses have a count of surviving animals in place of a T/C: the source holds a T/C of zero for them, seemingly a mark for toxic or unscored doses. Counts of survivors are from the toxicity check (mostly the fifth day) where no day follows; animals may have died later. Schedule codes are those of the source, taken here to give the interval after Q, in days (D) or hours (H), and the number of doses after X. Some entries were tested several times; the values are given in rising order. For survival time, this PubChem deposit counts one and a half times the control or more as active, and values a quarter to a half above the control carry no call in these data; other NCI protocols may use other cut-offs. Some entries show no survivor count and are marked so; the dose need not have been tolerated. Some T/C values are followed by the survivors on the day toxicity was checked, most often the fifth; without a count or a note in brackets, all were alive then. Some metal complexes and salts are drawn in pieces, as in the source, so charges may not balance.

The assay has as its system CD2F1 mice, L1210 leukemia ip, survival T/C. Description: NCI In Vivo Anticancer Drug Screen. Data for tumor model L1210 Leukemia (intraperitoneal) in CD2F1 (CDF1) mice. To be noted: higher T/C = longer survival. The method, then: The antitumor activity of compounds was measured in mice bearing transplantable tumors. Survival or tumor size were measured and the results are expressed as the measurement made in the treated group (T) divided by the measurement made in the vehicle treated control group (C). The tumor model used in this assay is L1210 Leukemia (intraperitoneal) in CD2F1 (CDF1) mice

Where [1] appears, read: T/C endpoint: mean survival time, dose: 25.0 mg/kg/injection, schedule: Q04DX002 (ip), vehicle: saline with Tween-80.
[2] abbreviates: T/C endpoint: mean survival time, dose: 50.0 mg/kg/injection, schedule: Q04DX002 (ip), vehicle: saline with Tween-80.
Setting [3] is: T/C endpoint: mean survival time, dose: 100.0 mg/kg/injection, schedule: Q04DX002 (ip), vehicle: saline with Tween-80.
[4] abbreviates: T/C endpoint: mean survival time, dose: 200.0 mg/kg/injection, schedule: Q04DX002 (ip), vehicle: saline with Tween-80.

As for `COP1OCCO1`, the T/C (T/C endpoint: mean survival time, dose: 75.0 mg/kg/injection, schedule: Q01DX009 (ip), vehicle: saline) is 101 % of control [5 of 6 alive] and the T/C (T/C endpoint: mean survival time, dose: 150.0 mg/kg/injection, schedule: Q01DX009 (ip), vehicle: saline) was 96 % of control. The survivor count (T/C endpoint: mean survival time, dose: 300.0 mg/kg/injection, schedule: Q01DX009 (ip), vehicle: saline) was 2 of 6.
Consider `CC(=O)N(CCCc1c(C)nc(N)[nH]c1=O)Cc1ccccn1.O=[N+]([O-])c1cc([N+](=O)[O-])c(O)c([N+](=O)[O-])c1`, for which the T/C by setting is: (T/C endpoint: mean survival time, dose: 100.0 mg/kg/injection, schedule: Q01DX001 (ip), vehicle: saline with Tween-80) 95 % of control; (T/C endpoint: mean survival time, dose: 200.0 mg/kg/injection, schedule: Q01DX001 (ip), vehicle: saline with Tween-80) 90 % of control; (T/C endpoint: mean survival time, dose: 400.0 mg/kg/injection, schedule: Q01DX001 (ip), vehicle: saline with Tween-80) 87 % of control.
As to `ClCCN[PH+]1OCCCN1CCCl.ClCCN[PH+]1OCCCN1CCCl.[Cl][Pt][Cl]` (stereo not given), the T/C reads like this: (T/C endpoint: mean survival time, dose: 3.13 mg/kg/injection, schedule: Q04DX003 (ip), vehicle: distilled water + Tween-80) 93 % of control; (T/C endpoint: mean survival time, dose: 6.25 mg/kg/injection, schedule: Q04DX003 (ip), vehicle: distilled water + Tween-80) 93 % of control; (T/C endpoint: mean survival time, dose: 12.5 mg/kg/injection, schedule: Q04DX003 (ip), vehicle: distilled water + Tween-80) 97 % of control; (T/C endpoint: mean survival time, dose: 25.0 mg/kg/injection, schedule: Q04DX003 (ip), vehicle: distilled water + Tween-80) 92 % of control; (T/C endpoint: mean survival time, dose: 50.0 mg/kg/injection, schedule: Q04DX003 (ip), vehicle: distilled water + Tween-80) 92 % of control; (T/C endpoint: mean survival time, dose: 100.0 mg/kg/injection, schedule: Q04DX003 (ip), vehicle: distilled water + Tween-80) 93 % of control. For the setting “T/C endpoint: mean survival time, dose: 200.0 mg/kg/injection, schedule: Q04DX003 (ip), vehicle: distilled water + Tween-80”, the T/C was 91 % of control [5 of 6 alive].
In the case of `CCP1(=O)Nc2ccc(C)cc2N1` (stereo not given), the T/C by setting is: (T/C endpoint: mean survival time, dose: 100.0 mg/kg/injection, schedule: Q01DX001 (ip), vehicle: saline) 100 % of control [survivor count not shown]; (T/C endpoint: mean survival time, dose: 200.0 mg/kg/injection, schedule: Q01DX001 (ip), vehicle: saline) 100 % of control [survivor count not shown]; (T/C endpoint: mean survival time, dose: 400.0 mg/kg/injection, schedule: Q01DX001 (ip), vehicle: saline) 91 % of control [survivor count not shown].
Regarding `NP1(=O)C=CN(C2OC(CO)C(O)C2O)C(=O)N1` (stereo not given), the T/C is, setting by setting: (T/C endpoint: median survival time, dose: 2.5 mg/kg/injection, schedule: Q01DX005 (ip), vehicle: water) 100 % of control; (T/C endpoint: median survival time, dose: 5.0 mg/kg/injection, schedule: Q01DX005 (ip), vehicle: water) 94 % of control; (T/C endpoint: median survival time, dose: 10.0 mg/kg/injection, schedule: Q01DX005 (ip), vehicle: water) 92 % of control; (T/C endpoint: median survival time, dose: 20.0 mg/kg/injection, schedule: Q01DX005 (ip), vehicle: water) 97 % of control; (T/C endpoint: median survival time, dose: 40.0 mg/kg/injection, schedule: Q01DX005 (ip), vehicle: water) 99 % of control.
With `CCCCCN=C(N)C(N)=NCCCCC`, the T/C reads like this: under setting [1], 102 % of control; under setting [2], 95 % of control; under setting [3], 98 % of control; under setting [4], 93 % of control [2 of 3 alive].
For `C[As](C)Sc1ncnc2nc[nH]c12`, the T/C is, setting by setting: (T/C endpoint: mean survival time, dose: 3.13 mg/kg/injection, schedule: Q01DX005 (ip), vehicle: distilled water + Tween-80) 107 % of control; (T/C endpoint: mean survival time, dose: 6.25 mg/kg/injection, schedule: Q01DX005 (ip), vehicle: distilled water + Tween-80) 110 and 114 % of control; (T/C endpoint: mean survival time, dose: 12.5 mg/kg/injection, schedule: Q01DX005 (ip), vehicle: distilled water + Tween-80) 107 and 114 % of control; (T/C endpoint: mean survival time, dose: 25.0 mg/kg/injection, schedule: Q01DX005 (ip), vehicle: distilled water + Tween-80) 86 and 114 % of control. In addition, the survivor count is, setting by setting: (T/C endpoint: mean survival time, dose: 50.0 mg/kg/injection, schedule: Q01DX005 (ip), vehicle: distilled water + Tween-80) 0 of 6 and 1 of 6; (T/C endpoint: mean survival time, dose: 100.0 mg/kg/injection, schedule: Q01DX005 (ip), vehicle: distilled water + Tween-80) 0 of 6.
For `CCNCCN(CC)C(=N)C(=N)N(CC)CCNCC.O=[N+]([O-])c1cc([N+](=O)[O-])c(O)c([N+](=O)[O-])c1`, the T/C was 93 % of control under setting [1], 93 % of control under setting [2], 93 % of control under setting [3] and 89 % of control under setting [4].
For the compound `CC(C)(COP(=O)(OCC(C)(C)[N+](=O)[O-])OCC(C)(C)[N+](=O)[O-])[N+](=O)[O-]`, the T/C is, setting by setting: (T/C endpoint: mean survival time, dose: 50.0 mg/kg/injection, schedule: Q01DX009 (ip), vehicle: saline with Tween-80) 96 % of control; (T/C endpoint: mean survival time, dose: 100.0 mg/kg/injection, schedule: Q01DX009 (ip), vehicle: saline with Tween-80) 96 % of control; (T/C endpoint: mean survival time, dose: 200.0 mg/kg/injection, schedule: Q01DX009 (ip), vehicle: saline with Tween-80) 100 % of control.
In the case of `CCOC1CNP(=O)(N(CCCl)CCCl)OC1` (stereo not given), the T/C by setting is: (T/C endpoint: mean survival time, dose: 21.25 mg/kg/injection, schedule: Q01DX001 (ip), vehicle: DMSO) 98 % of control; (T/C endpoint: mean survival time, dose: 21.9 mg/kg/injection, schedule: Q01DX001 (ip), vehicle: DMSO) 100 % of control; (T/C endpoint: mean survival time, dose: 42.5 mg/kg/injection, schedule: Q01DX001 (ip), vehicle: DMSO) 100 % of control; (T/C endpoint: mean survival time, dose: 43.8 mg/kg/injection, schedule: Q01DX001 (ip), vehicle: DMSO) 107 % of control; (T/C endpoint: mean survival time, dose: 85.0 mg/kg/injection, schedule: Q01DX001 (ip), vehicle: DMSO) 102 % of control; (T/C endpoint: mean survival time, dose: 87.5 mg/kg/injection, schedule: Q01DX001 (ip), vehicle: DMSO) 112 % of control. Besides, the T/C runs as follows: (T/C endpoint: mean survival time, dose: 170.0 mg/kg/injection, schedule: Q01DX001 (ip), vehicle: DMSO) 94 % of control; (T/C endpoint: mean survival time, dose: 175.0 mg/kg/injection, schedule: Q01DX001 (ip), vehicle: DMSO) 119 % of control; (T/C endpoint: mean survival time, dose: 340.0 mg/kg/injection, schedule: Q01DX001 (ip), vehicle: DMSO) 102 % of control; (T/C endpoint: mean survival time, dose: 350.0 mg/kg/injection, schedule: Q01DX001 (ip), vehicle: DMSO) 132 % of control; (T/C endpoint: mean survival time, dose: 680.0 mg/kg/injection, schedule: Q01DX001 (ip), vehicle: DMSO) 105 % of control; (T/C endpoint: mean survival time, dose: 700.0 mg/kg/injection, schedule: Q01DX001 (ip), vehicle: DMSO) 144 % of control.
In the case of `O=C(c1ccccc1[N+](=O)[O-])N(CCCl)CCCl`, the T/C reads like this: (T/C endpoint: mean survival time, dose: 50.0 mg/kg/injection, schedule: Q01DX009 (ip), vehicle: Klucel (hydroxypropylcellulose) (HPC)) 100 % of control; (T/C endpoint: mean survival time, dose: 100.0 mg/kg/injection, schedule: Q01DX009 (ip), vehicle: Klucel (hydroxypropylcellulose) (HPC)) 102 % of control; (T/C endpoint: mean survival time, dose: 200.0 mg/kg/injection, schedule: Q01DX009 (ip), vehicle: Klucel (hydroxypropylcellulose) (HPC)) 96 % of control.
`CCCCNCCN=C(N)C(N)=NCCNCCCC.O=[N+]([O-])c1cc([N+](=O)[O-])c(O)c([N+](=O)[O-])c1`: the T/C (T/C endpoint: mean survival time, dose: 75.0 mg/kg/injection, schedule: Q04DX002 (ip), vehicle: saline with Tween-80) was 96 % of control [survivor count not shown].
In the case of `CCP1(=O)Nc2ccccc2N1`, the T/C (T/C endpoint: mean survival time, dose: 100.0 mg/kg/injection, schedule: Q01DX009 (ip), vehicle: saline) was 89 % of control [survivor count not shown]; the T/C (T/C endpoint: mean survival time, dose: 200.0 mg/kg/injection, schedule: Q01DX009 (ip), vehicle: saline) is 112 % of control [survivor count not shown]; the T/C (T/C endpoint: mean survival time, dose: 400.0 mg/kg/injection, schedule: Q01DX009 (ip), vehicle: saline) is 121 % of control [survivor count not shown].
`CCCCCCC(C)N(CC)CCO.O=[N+]([O-])c1cc([N+](=O)[O-])c(O)c([N+](=O)[O-])c1`: the T/C was 96 % of control (T/C endpoint: mean survival time, dose: 75.0 mg/kg/injection, schedule: Q01DX001 (ip), vehicle: other) and 100 % of control [4 of 6 alive] (T/C endpoint: mean survival time, dose: 150.0 mg/kg/injection, schedule: Q01DX001 (ip), vehicle: other). The survivor count (T/C endpoint: mean survival time, dose: 300.0 mg/kg/injection, schedule: Q01DX001 (ip), vehicle: other) was 0 of 6.
